# From paper PMC10560722
# No constants are given. Whether binding was seen depends on the method and setting. For some assays here: Binding seen in cells or lysates may run through a third protein. Some results given as binding are weak or reduced against the parent protein; the word gives no strength. For some assays here: Where a sequence is shown, tags or fusion partners need not be part of it.
# T1: miniDKC1∆cat (truncated human dyskerin) two-hybrid bait (human) (UniProt O60832)
# T1 sequence: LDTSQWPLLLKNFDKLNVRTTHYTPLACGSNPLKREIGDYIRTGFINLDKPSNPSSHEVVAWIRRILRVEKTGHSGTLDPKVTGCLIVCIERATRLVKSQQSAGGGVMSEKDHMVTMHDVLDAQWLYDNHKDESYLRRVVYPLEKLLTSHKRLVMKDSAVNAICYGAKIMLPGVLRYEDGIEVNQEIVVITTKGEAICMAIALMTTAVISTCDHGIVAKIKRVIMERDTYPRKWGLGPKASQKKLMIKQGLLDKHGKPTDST
# T2: human SHQ1 variant A426V with a C-terminal FLAG tag (human) (UniProt Q6PI26)
# T2 sequence: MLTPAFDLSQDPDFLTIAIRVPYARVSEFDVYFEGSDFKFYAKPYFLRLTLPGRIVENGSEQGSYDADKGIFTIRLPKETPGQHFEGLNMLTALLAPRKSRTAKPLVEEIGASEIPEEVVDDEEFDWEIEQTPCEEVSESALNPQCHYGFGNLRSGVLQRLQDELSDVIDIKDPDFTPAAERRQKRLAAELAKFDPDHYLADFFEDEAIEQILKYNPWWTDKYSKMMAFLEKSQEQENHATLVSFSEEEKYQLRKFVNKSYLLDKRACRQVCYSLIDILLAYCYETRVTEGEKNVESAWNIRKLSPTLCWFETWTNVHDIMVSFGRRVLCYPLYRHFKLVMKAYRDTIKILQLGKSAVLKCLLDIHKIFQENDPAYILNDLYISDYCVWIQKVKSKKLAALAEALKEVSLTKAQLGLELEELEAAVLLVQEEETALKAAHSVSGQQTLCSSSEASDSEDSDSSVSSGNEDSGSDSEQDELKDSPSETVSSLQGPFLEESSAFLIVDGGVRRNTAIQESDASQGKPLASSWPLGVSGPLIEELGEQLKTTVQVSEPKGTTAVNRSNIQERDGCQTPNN
# T3: human SHQ1 variant R335C with a C-terminal FLAG tag (human) (UniProt Q6PI26)
# T3 sequence: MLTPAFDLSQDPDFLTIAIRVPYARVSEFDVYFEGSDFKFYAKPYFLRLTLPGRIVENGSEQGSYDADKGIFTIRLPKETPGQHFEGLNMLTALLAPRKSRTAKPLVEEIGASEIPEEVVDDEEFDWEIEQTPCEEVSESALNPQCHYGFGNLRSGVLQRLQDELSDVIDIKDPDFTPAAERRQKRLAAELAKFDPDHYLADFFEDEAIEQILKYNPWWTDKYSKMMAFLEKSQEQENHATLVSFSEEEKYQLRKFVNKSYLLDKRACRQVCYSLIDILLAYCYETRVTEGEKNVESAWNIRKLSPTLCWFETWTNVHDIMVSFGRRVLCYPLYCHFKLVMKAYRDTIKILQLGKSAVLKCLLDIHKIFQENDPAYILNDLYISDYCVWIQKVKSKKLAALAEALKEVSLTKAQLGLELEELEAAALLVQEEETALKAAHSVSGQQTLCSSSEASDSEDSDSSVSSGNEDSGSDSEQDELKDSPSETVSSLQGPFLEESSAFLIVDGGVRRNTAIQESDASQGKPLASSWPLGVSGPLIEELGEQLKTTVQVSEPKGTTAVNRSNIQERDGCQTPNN
# T4: human SHQ1 with a C-terminal FLAG tag (wild-type) (human) (UniProt Q6PI26)
# T4 sequence: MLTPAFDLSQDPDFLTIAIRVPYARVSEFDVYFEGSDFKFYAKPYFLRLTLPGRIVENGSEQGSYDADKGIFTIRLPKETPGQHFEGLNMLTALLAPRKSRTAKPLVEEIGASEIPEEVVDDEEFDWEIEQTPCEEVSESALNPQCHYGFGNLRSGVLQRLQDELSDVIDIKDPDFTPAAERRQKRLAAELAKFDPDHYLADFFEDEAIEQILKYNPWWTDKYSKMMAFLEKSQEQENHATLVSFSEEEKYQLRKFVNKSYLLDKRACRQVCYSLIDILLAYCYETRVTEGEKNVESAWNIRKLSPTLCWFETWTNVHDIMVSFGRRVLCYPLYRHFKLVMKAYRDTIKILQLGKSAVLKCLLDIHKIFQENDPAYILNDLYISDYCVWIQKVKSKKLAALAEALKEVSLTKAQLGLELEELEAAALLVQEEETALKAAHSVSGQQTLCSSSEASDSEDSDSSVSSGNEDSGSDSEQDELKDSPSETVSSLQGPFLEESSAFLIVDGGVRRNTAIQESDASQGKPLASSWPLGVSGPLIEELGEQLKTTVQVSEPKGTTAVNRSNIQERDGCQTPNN
# Columns and labels:
# [1] = target: T1, miniDKC1∆cat (truncated human dyskerin) two-hybrid bait (human); test: two-hybrid; strain AH109; miniDKC1∆cat as bait (pGBKT7), hSHQ1 or variants as prey (pGADT7); growth on SDex-Trp-Leu-His plates with various concentrations of 3-AT, 4 days at 30°C
# [2] = target: T2, human SHQ1 variant A426V with a C-terminal FLAG tag (human); test: co-IP; anti-FLAG M2 affinity gel with whole cell extracts of yeast strain YSO12 expressing hSHQ1-FLAG or variants, cells shifted to SDex-Ura for 2 h at 30°C; TMN100 buffer (25 mM Tris-HCl pH 7.9, 10 mM MgCl2, 100 mM NaCl, 0.1% NP-40, 1 mM DTT), 4°C, 2 h; Western blot with anti-myc; uncoated beads as control
# [3] = target: T3, human SHQ1 variant R335C with a C-terminal FLAG tag (human); test: as above
# [4] = target: T4, human SHQ1 with a C-terminal FLAG tag (wild-type) (human); test: as above
binding [1],binding [2],binding [3],binding [4],Binder
binds,–,–,–,"human SHQ1 (wild-type) two-hybrid prey (protein, UniProt Q6PI26 1-577) MLTPAFDLSQDPDFLTIAIRVPYARVSEFDVYFEGSDFKFYAKPYFLRLTLPGRIVENGSEQGSYDADKGIFTIRLPKETPGQHFEGLNMLTALLAPRKSRTAKPLVEEIGASEIPEEVVDDEEFDWEIEQTPCEEVSESALNPQCHYGFGNLRSGVLQRLQDELSDVIDIKDPDFTPAAERRQKRLAAELAKFDPDHYLADFFEDEAIEQILKYNPWWTDKYSKMMAFLEKSQEQENHATLVSFSEEEKYQLRKFVNKSYLLDKRACRQVCYSLIDILLAYCYETRVTEGEKNVESAWNIRKLSPTLCWFETWTNVHDIMVSFGRRVLCYPLYRHFKLVMKAYRDTIKILQLGKSAVLKCLLDIHKIFQENDPAYILNDLYISDYCVWIQKVKSKKLAALAEALKEVSLTKAQLGLELEELEAAALLVQEEETALKAAHSVSGQQTLCSSSEASDSEDSDSSVSSGNEDSGSDSEQDELKDSPSETVSSLQGPFLEESSAFLIVDGGVRRNTAIQESDASQGKPLASSWPLGVSGPLIEELGEQLKTTVQVSEPKGTTAVNRSNIQERDGCQTPNN"
binds,–,–,–,"human SHQ1 variant A426V two-hybrid prey (protein, UniProt Q6PI26 1-577) MLTPAFDLSQDPDFLTIAIRVPYARVSEFDVYFEGSDFKFYAKPYFLRLTLPGRIVENGSEQGSYDADKGIFTIRLPKETPGQHFEGLNMLTALLAPRKSRTAKPLVEEIGASEIPEEVVDDEEFDWEIEQTPCEEVSESALNPQCHYGFGNLRSGVLQRLQDELSDVIDIKDPDFTPAAERRQKRLAAELAKFDPDHYLADFFEDEAIEQILKYNPWWTDKYSKMMAFLEKSQEQENHATLVSFSEEEKYQLRKFVNKSYLLDKRACRQVCYSLIDILLAYCYETRVTEGEKNVESAWNIRKLSPTLCWFETWTNVHDIMVSFGRRVLCYPLYRHFKLVMKAYRDTIKILQLGKSAVLKCLLDIHKIFQENDPAYILNDLYISDYCVWIQKVKSKKLAALAEALKEVSLTKAQLGLELEELEAAVLLVQEEETALKAAHSVSGQQTLCSSSEASDSEDSDSSVSSGNEDSGSDSEQDELKDSPSETVSSLQGPFLEESSAFLIVDGGVRRNTAIQESDASQGKPLASSWPLGVSGPLIEELGEQLKTTVQVSEPKGTTAVNRSNIQERDGCQTPNN"
–,binds,binds,binds,"myc-tagged Cbf5 (yeast pseudouridine synthase, homologue of dyskerin) (enzyme, UniProt P33322 1-483) MSKEDFVIKPEAAGASTDTSEWPLLLKNFDKLLVRSGHYTPIPAGSSPLKRDLKSYISSGVINLDKPSNPSSHEVVAWIKRILRCEKTGHSGTLDPKVTGCLIVCIDRATRLVKSQQGAGKEYVCIVRLHDALKDEKDLGRSLENLTGALFQRPPLISAVKRQLRVRTIYESNLIEFDNKRNLGVFWASCEAGTYMRTLCVHLGMLLGVGGHMQELRRVRSGALSENDNMVTLHDVMDAQWVYDNTRDESYLRSIIQPLETLLVGYKRIVVKDSAVNAVCYGAKLMIPGLLRYEEGIELYDEIVLITTKGEAIAVAIAQMSTVDLASCDHGVVASVKRCIMERDLYPRRWGLGPVAQKKKQMKADGKLDKYGRVNENTPEQWKKEYVPLDNAEQSTSSSQETKETEEEPKKAKEDSLIKEVETEKEEVKEDDSKKEKKEKKDKKEKKEKKEKKDKKEKKEKKEKKRKSEDGDSEEKKSKKSKK"
